Measurements reported in PMC9935549.
Results are given in words; binding and its absence hold for the method and conditions named. Some binding calls cover weakened binding; strength is not graded here.

By UniProt entry, the sequences of proteins in these tests, tags left out. Where a name states a change or a piece, a line headed by the entry shows the natural chain unless it says otherwise.
UniProt Q15393: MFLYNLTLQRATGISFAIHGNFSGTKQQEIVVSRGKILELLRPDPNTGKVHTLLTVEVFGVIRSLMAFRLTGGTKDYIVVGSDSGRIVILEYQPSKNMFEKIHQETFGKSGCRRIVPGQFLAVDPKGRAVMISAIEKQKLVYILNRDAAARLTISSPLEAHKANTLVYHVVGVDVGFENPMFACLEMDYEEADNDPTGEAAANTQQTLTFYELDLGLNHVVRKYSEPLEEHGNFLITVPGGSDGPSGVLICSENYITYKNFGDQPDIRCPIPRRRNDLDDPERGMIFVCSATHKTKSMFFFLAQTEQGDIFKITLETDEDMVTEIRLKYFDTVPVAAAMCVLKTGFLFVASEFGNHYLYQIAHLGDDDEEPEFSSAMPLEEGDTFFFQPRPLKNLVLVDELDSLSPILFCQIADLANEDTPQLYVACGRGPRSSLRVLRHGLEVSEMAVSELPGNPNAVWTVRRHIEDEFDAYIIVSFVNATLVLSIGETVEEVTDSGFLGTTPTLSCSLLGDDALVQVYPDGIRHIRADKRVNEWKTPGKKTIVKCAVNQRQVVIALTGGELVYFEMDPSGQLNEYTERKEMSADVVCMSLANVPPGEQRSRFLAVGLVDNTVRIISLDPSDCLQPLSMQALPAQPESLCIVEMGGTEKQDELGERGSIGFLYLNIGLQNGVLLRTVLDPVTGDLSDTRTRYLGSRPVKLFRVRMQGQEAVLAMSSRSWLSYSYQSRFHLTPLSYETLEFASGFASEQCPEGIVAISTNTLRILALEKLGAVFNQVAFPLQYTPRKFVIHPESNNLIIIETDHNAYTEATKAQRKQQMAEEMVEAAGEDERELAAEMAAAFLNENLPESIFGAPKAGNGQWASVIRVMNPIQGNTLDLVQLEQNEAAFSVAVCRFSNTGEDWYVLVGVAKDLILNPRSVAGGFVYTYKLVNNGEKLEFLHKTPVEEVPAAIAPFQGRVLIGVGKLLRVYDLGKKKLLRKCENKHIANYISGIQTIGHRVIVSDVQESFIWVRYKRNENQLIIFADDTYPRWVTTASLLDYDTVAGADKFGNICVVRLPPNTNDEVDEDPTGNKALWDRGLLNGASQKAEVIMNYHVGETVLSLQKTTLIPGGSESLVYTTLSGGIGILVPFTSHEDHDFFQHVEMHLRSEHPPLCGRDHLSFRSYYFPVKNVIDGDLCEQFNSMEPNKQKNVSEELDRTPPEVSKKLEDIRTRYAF
UniProt Q9BWJ5: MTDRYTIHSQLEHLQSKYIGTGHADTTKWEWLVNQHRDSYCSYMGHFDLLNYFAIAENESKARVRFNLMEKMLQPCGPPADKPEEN
UniProt O75533: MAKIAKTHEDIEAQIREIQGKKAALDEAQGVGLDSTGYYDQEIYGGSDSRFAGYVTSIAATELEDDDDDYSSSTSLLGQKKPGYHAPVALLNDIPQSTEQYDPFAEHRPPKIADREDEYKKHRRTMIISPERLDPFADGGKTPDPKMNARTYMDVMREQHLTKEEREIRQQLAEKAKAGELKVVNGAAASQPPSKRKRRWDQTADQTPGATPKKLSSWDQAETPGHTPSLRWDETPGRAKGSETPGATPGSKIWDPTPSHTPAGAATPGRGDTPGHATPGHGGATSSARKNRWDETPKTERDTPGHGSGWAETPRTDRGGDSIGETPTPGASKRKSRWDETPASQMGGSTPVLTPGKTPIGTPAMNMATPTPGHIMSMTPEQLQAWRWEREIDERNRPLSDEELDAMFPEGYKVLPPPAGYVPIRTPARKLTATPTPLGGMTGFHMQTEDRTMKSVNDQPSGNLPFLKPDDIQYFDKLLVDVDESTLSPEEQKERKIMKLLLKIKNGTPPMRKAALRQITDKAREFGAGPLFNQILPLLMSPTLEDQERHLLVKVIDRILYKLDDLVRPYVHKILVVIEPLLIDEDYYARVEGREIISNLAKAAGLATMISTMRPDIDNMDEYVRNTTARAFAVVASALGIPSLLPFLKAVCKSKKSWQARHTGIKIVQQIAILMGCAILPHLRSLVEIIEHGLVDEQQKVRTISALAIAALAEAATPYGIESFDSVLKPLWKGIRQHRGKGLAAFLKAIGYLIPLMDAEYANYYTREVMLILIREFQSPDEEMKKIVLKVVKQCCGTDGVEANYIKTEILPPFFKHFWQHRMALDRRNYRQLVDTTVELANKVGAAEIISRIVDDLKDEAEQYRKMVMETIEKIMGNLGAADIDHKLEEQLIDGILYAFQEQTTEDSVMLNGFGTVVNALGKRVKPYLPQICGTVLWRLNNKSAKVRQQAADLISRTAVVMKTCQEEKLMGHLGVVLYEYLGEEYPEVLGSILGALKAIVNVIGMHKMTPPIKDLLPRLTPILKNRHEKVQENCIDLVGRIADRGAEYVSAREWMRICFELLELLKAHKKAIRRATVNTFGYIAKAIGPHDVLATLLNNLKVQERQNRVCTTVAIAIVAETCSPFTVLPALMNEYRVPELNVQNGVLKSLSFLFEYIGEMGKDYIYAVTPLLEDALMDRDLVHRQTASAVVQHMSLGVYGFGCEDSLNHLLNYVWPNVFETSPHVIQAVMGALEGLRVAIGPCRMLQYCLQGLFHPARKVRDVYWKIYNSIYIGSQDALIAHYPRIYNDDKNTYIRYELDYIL
UniProt Q86XP3: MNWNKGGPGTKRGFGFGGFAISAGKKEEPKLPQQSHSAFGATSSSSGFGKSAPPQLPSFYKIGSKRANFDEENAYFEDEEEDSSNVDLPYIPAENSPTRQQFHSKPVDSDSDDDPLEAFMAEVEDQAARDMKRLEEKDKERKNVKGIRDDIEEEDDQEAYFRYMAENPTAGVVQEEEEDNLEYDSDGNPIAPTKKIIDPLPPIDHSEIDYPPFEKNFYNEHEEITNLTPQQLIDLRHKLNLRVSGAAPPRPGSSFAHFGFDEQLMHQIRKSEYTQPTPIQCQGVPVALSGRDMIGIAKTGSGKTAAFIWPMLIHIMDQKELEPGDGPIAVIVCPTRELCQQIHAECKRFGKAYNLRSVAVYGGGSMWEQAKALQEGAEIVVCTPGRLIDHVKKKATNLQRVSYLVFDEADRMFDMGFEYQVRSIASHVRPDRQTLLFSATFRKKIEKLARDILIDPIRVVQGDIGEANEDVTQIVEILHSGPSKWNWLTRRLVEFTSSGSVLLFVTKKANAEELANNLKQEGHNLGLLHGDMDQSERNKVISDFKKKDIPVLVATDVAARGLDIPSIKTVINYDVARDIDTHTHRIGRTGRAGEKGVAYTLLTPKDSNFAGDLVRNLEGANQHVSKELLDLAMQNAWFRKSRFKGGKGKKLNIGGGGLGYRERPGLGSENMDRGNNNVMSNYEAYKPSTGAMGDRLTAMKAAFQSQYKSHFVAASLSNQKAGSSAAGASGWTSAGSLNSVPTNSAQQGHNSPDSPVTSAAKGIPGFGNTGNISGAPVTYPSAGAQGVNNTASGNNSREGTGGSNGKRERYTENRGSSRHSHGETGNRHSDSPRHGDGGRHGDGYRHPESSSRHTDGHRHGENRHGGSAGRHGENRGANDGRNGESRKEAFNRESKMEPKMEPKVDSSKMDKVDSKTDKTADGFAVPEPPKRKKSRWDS

Key:
[1] = target: SF3B3 (full-length, Twin-Strep tag) (human) (UniProt Q15393); assay: cryo-EM structure; DDX42-SF3b complex: five proteins co-expressed in HEK293F, tandem affinity (anti-Flag, Strep-Tactin), SEC, cross-linked with 0.5 mM BS3; 2.6 Å
[2] = target: SF3B5 (full-length, Flag tag) (human) (UniProt Q9BWJ5); assay: as above
[3] = target: truncated SF3B1 (residues 454–1304) (human) (UniProt O75533); assay: as above
[4] = target: SF3B1 (endogenous, HEK293F, in the DDX42-U2 complex) (human (endogenous in HEK293F)) (UniProt O75533); assay: cryo-EM structure; DDX42-U2 complex: Flag-DDX42 expressed in HEK293F, anti-Flag selection of endogenous complexes, glycerol gradient with 0–0.1% glutaraldehyde; 2.7 Å

Row | Substance | binding [1] | binding [2] | binding [3] | binding [4]
1 | Flag-DDX42 (full-length) (from UniProt Q86XP3 1-938) | binds | binds | binds | binds
2 | truncated SF3B1 (residues 454–1304) (from UniProt O75533 454-1304) (domain or fragment) | binds | – | – | –
